Here are results for one substance from paper PMC3681745.

Sequences of proteins named here, by UniProt entry; tags and fusion partners are left off.
UniProt Q5VTR2: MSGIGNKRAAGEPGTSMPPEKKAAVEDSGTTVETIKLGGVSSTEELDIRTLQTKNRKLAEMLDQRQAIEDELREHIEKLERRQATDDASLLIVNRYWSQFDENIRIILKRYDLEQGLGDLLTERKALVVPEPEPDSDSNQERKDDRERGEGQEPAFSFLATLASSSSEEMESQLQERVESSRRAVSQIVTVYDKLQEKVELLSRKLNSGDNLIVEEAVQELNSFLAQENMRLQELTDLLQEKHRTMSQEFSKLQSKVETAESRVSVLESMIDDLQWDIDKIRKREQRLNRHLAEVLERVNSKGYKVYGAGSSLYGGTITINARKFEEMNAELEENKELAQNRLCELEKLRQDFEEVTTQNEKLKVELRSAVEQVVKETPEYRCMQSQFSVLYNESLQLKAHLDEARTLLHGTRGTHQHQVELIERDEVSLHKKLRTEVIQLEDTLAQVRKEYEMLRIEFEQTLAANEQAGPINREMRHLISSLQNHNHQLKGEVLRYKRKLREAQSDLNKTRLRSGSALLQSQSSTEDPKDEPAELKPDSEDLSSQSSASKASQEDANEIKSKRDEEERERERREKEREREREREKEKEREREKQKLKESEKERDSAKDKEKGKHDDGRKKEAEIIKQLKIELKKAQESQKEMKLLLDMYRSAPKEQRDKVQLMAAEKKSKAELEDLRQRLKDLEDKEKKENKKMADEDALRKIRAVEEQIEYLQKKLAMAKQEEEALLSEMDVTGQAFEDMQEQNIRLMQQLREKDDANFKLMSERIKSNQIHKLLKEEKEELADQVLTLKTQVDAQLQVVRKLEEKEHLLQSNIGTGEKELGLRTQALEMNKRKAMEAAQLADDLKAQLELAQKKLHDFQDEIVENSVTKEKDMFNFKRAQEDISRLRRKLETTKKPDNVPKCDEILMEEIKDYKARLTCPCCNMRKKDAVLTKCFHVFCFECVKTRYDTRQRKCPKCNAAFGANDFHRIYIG

Holding throughout (experiment): co-IP; HT1080 cells co-transfected with hBre1 and E1A-GFP of six HAdV types; NP40 lysis buffer (150 mM NaCl, 50 mM Tris-HCl pH 7.5, 0.1% NP-40); 0.5 mg lysate immunoprecipitated with 1 ug GFP rabbit polyclonal at 4 C for 4 hours; co-precipitated hBre1 detected with hBre1 specific antibody
Assay [1] concerns the target HAdV 5 E1A, tagged at the C-terminus with GFP (human adenovirus 5 (HAdV 5)) (UniProt P03255).
For assay [2], the target named is HAdV 12 E1A, tagged at the C-terminus with GFP (human adenovirus 12 (HAdV 12)) (UniProt P03259).
In assay [3] the target is HAdV 4 E1A, tagged at the C-terminus with GFP (human adenovirus 4 (HAdV 4)) (UniProt P10407).

No constants are given. Whether binding was seen depends on the method and setting. Binding seen in cells or lysates may run through a third protein. Some results given as binding are weak or reduced against the parent protein; the word gives no strength.

As for “hBre1 (human BREfeldin A sensitivity)/RNF20 (Ring finger protein 20) (from UniProt Q5VTR2 1-975)”, the values for the binding result in assay [1], in assay [2] and in assay [3] were “binds”, “no binding” and “binds”, respectively.
